## Primary screen of a compound library

A: 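Growth of Mycobacterium tuberculosis over 4 days (cholesterol / DPPC medium with tyloxapol); the read-out is not stated. Concentration: 50 µM. The record gives no direction; compounds that gave an IC50 in retests scored well above the rest, so higher reads as more growth inhibition. Size under these conditions: about 69,000 compounds, about 370 of them at 50% or above in at least one test.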
B: 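Whole-cell growth test on Mycobacterium tuberculosis, read after 3 days in glucose-containing 7H9 medium; the read-out is not stated. Tested at 50 µM. Higher reads as more growth inhibition (inferred: compounds with an IC50 in retests scored well above the rest). Of about 69,000 compounds tested this way, about 760 (1.1%) reached 50% or more in at least one test.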

Values are the deposited “Percent Effect”, in %.
The record does not define 0% and 100%; most values in the screen are far below 50% and negative numbers occur (in some assays of this library far below -100).
Compounds were drawn at random from those tested, without regard to their results.
Two or more numbers in one place are separate tests of the same structure; such repeats can differ widely.

{"compound": "Cc1noc(CN(C)Cc2ccc3c(c2)OCO3)n1", "A": -19.59, "B": "-1.117 & -11.88"}
{"compound": "COc1ncccc1C(=O)Nc1nc2c(s1)CN(S(=O)(=O)C1CC1)CC2", "A": -24.58, "B": "-18.85 & -9.995"}
{"compound": "CC1=C[C@@H](CN2CCC(CO)CC2)[C@H](C(C)C)C[C@H]1Cc1nnc(C)o1", "A": -24.38, "B": "-5.3 & -15.5"}
{"compound": "CN(C)C1(CNC(=O)c2c(O)cc(Cl)cc2Cl)CCOCC1", "A": 2.806, "B": -8.173}
{"compound": "Cc1cc(C)nc(NC2CCN(CCOC(C)C)CC2)n1", "A": 11.53, "B": 32.43}
{"compound": "CNC(=O)N1CCC2(CC1)CN(C(C)C)Cc1cc(F)ccc12.Cl", "A": 3.029, "B": "-7.553 & 3.779"}
{"compound": "COCCc1noc(CN2CCOC(Cn3nc(C)cc3C)C2)n1", "stereo": "configuration not stated", "A": -1.191, "B": 11.36}
{"compound": "Nc1nnc(CCNC(=O)c2cccc(C3CCCNC3)c2)s1", "stereo": "configuration not stated", "A": 18.03, "B": -4.143}
{"compound": "Cn1c(=O)oc2ccc(NC(=O)N3CCOCC3)cc21", "A": -54.39, "B": 1.394}
{"compound": "CNc1cnc(CC2COCCN(CCOc3ccccc3)C2)cn1", "stereo": "configuration not stated", "A": 22.79, "B": 32.51}
{"compound": "COc1ccc(C(=O)N2Cc3c(Cn4ccnc4)nn(C)c3C2)cc1", "A": -10.85, "B": 21.19}
{"compound": "CCn1nc(C)c(CNC(=O)c2nnc3ccccc3n2)c1C", "A": -15.67, "B": -28.2}
{"compound": "Cl.Fc1ccc(CN2CCC(c3n[nH]c4ncccc34)CC2)cc1F", "A": -2.304, "B": -17.11}
{"compound": "COc1ncccc1CN1CCn2c(C(=O)N3CCCC3)cnc2C1.O=C(O)C(F)(F)F.O=C(O)C(F)(F)F", "A": 7.588, "B": "11.71 & 0.6955"}
{"compound": "CS(=O)(=O)Nc1ccn(Cc2ccc(Br)cc2)n1", "A": 24.99, "B": 22.41}
{"compound": "O=C(c1ccc2c(c1)CCC2)N1CCN(c2ccc(Cl)cn2)CC1", "A": 4.905, "B": 10.88}
{"compound": "CN(C)Cc1nc(C(C)(C)NC(=O)c2ccnn2C)no1", "A": "-7.603 & -7.444", "B": -75.26}
{"compound": "COCCC1(CNC(=O)Nc2ccc(-n3ccnn3)cc2)CCC1", "A": 29.54, "B": 50.67}
{"compound": "Fc1cnc(N2CCC3(CC2)CC(OCc2cccnc2)CO3)nc1.O=C(O)C(F)(F)F.O=C(O)C(F)(F)F", "stereo": "configuration not stated", "A": 2.543, "B": "11.63 & 23.44"}
{"compound": "[H][C@]12CCN(C(=O)c3cnccn3)[C@@]1([H])CC[C@H](COCC)O2", "A": 1.806, "B": 0.9486}
{"compound": "Cc1noc(C)c1CN(C)C(=O)C1(N)CCCCC1", "A": 0.1378, "B": "-8.817 & -20.54"}
{"compound": "CCC(Nc1nc(C(C)C)nc2c1cnn2C)c1ccc(O)cc1", "stereo": "configuration not stated", "A": -15.92, "B": -14.16}
{"compound": "Cc1ccc(CNC(=O)CNCC2CCN(CCO)CC2)s1", "A": 0.5905, "B": 27.89}
{"compound": "Fc1cccc(-c2nnn3c2COCC(CNCc2nccs2)C3)c1.O=C(O)C(F)(F)F", "stereo": "configuration not stated", "A": -19.67, "B": -3.435}
{"compound": "CC(C)c1cc(C(=O)N2CCN(c3ncc4c(n3)CCOC4)CC2)on1", "A": "1.341 & -11.68", "B": -1.496}
{"compound": "CCC[C@H]1CN(Cc2ccc(N(C)C)nc2)C[C@@H]1NS(=O)(=O)CC", "A": "6.665 & -3.553", "B": "22.25 & 0.7662"}
{"compound": "CCOCC(O)CNc1cncc(Br)c1", "stereo": "configuration not stated", "A": -9.969, "B": -13.05}
{"compound": "Cc1cc(C)cc(NCCC(=O)NCc2cccnc2N(C)C)c1", "A": -3.344, "B": 27.99}
{"compound": "COCc1ccccc1NC(=O)c1ccoc1", "A": -1.872, "B": -23.21}
{"compound": "Cc1nc(C2CCN(C)CC2)cc(N2CCOc3ccc(Cl)cc3C2)n1", "A": 17.81, "B": 63.76}
{"compound": "O=C1CCCN1CCN1CCCCC1Cn1cccn1", "stereo": "configuration not stated", "A": 17.15, "B": "6.096 & -6.014"}

The values are deposited in ChEMBL (CHEMBL3988442, “University of Dundee, Small-Polar-MMV Screening Library” (2021)).